The text below walks through data of the supplement of paper PMC12819154, “High-throughput peptide-centric local stability assay extends protein–ligand identification to membrane proteins, tissues and bacteria” (Nature Structural & Molecular Biology, 2025).

Protein sequences, listed by entry. Tags and fused reporters are not part of them. Lines headed by an entry give the natural chain unless they say otherwise; changes in a name come on top.
UniProt O95749: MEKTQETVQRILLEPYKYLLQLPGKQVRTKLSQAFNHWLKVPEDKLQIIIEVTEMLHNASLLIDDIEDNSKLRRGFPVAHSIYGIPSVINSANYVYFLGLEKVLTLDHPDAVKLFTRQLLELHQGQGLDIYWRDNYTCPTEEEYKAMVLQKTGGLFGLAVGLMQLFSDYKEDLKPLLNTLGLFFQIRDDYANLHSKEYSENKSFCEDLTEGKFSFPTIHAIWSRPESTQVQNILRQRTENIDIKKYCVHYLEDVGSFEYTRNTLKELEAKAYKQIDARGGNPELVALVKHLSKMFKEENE
UniProt O75943: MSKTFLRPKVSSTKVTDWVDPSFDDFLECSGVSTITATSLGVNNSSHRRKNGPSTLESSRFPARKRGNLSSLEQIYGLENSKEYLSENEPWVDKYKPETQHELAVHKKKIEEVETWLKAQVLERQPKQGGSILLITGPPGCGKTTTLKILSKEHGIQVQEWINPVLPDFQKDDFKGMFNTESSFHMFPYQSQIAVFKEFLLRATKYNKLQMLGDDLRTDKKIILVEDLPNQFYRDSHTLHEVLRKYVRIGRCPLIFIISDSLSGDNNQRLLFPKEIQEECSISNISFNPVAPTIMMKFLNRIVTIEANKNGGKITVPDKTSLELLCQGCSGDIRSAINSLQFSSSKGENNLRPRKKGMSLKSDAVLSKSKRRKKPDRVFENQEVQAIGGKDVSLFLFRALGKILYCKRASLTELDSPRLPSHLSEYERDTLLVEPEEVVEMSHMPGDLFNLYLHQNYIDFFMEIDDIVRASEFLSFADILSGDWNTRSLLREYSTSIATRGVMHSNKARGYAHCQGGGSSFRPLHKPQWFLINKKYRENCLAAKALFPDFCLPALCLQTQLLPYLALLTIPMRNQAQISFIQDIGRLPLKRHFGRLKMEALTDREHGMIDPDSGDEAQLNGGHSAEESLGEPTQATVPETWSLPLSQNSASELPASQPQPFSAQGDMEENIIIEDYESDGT
UniProt O75794: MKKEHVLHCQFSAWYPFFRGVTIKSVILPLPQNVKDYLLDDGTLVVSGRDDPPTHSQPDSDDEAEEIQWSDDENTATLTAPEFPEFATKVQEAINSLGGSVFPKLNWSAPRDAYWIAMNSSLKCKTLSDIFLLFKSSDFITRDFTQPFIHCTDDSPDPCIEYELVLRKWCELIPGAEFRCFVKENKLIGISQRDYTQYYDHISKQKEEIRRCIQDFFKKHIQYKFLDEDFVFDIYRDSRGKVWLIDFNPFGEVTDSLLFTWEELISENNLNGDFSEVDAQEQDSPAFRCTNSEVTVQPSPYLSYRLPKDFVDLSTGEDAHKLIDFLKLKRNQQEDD
UniProt O76080: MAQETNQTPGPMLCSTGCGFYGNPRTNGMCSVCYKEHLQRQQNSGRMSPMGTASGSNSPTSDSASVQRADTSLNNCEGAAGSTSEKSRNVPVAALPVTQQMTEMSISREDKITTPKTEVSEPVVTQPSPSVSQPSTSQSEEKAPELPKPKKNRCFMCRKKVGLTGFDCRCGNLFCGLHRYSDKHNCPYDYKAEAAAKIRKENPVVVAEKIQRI
UniProt O75607: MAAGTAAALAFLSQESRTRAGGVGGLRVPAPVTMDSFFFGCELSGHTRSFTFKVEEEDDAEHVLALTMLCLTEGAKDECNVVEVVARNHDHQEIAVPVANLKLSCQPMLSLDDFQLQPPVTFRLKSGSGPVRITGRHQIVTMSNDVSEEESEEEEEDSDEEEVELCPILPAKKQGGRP
UniProt O95198, whole entry: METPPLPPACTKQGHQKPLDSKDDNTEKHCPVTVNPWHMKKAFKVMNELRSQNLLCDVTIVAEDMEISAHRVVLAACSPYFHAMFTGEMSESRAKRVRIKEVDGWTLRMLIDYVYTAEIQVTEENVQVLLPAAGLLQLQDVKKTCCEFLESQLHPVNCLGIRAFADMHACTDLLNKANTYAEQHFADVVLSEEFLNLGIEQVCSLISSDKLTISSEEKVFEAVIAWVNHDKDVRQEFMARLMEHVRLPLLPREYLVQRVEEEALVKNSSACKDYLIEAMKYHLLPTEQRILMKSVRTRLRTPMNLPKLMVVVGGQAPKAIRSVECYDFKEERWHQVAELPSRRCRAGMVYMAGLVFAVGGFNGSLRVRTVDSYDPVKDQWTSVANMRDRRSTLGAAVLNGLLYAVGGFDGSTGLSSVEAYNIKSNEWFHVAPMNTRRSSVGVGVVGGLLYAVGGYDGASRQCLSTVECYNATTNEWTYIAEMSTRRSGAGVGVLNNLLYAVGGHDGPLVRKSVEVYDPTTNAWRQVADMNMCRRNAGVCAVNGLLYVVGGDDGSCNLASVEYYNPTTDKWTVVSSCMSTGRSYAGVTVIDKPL
UniProt O95466, whole entry: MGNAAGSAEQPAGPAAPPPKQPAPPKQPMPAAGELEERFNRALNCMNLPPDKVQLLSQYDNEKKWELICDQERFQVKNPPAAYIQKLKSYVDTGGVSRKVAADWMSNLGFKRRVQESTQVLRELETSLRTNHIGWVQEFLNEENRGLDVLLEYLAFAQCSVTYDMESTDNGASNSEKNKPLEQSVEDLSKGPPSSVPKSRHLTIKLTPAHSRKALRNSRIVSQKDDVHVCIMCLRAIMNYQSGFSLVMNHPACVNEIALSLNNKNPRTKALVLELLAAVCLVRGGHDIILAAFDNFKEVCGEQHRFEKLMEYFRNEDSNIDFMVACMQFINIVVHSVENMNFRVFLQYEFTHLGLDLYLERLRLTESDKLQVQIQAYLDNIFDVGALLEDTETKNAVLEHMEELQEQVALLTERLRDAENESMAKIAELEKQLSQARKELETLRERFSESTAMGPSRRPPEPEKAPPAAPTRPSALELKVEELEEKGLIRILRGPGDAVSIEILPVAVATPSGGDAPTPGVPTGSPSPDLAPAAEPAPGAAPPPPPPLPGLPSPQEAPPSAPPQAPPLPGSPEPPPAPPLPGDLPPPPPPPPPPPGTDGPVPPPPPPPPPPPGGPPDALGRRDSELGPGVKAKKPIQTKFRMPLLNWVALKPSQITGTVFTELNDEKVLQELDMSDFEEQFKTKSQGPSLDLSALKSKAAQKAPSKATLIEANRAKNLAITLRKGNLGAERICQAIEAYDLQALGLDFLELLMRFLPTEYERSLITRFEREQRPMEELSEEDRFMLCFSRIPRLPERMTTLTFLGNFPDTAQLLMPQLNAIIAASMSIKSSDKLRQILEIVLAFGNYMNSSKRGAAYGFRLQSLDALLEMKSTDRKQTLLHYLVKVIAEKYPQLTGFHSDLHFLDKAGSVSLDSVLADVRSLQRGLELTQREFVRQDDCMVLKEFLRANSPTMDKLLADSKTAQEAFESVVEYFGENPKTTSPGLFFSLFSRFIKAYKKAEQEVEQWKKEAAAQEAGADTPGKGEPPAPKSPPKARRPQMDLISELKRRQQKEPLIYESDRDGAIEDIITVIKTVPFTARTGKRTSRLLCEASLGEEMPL
UniProt O95155, whole entry: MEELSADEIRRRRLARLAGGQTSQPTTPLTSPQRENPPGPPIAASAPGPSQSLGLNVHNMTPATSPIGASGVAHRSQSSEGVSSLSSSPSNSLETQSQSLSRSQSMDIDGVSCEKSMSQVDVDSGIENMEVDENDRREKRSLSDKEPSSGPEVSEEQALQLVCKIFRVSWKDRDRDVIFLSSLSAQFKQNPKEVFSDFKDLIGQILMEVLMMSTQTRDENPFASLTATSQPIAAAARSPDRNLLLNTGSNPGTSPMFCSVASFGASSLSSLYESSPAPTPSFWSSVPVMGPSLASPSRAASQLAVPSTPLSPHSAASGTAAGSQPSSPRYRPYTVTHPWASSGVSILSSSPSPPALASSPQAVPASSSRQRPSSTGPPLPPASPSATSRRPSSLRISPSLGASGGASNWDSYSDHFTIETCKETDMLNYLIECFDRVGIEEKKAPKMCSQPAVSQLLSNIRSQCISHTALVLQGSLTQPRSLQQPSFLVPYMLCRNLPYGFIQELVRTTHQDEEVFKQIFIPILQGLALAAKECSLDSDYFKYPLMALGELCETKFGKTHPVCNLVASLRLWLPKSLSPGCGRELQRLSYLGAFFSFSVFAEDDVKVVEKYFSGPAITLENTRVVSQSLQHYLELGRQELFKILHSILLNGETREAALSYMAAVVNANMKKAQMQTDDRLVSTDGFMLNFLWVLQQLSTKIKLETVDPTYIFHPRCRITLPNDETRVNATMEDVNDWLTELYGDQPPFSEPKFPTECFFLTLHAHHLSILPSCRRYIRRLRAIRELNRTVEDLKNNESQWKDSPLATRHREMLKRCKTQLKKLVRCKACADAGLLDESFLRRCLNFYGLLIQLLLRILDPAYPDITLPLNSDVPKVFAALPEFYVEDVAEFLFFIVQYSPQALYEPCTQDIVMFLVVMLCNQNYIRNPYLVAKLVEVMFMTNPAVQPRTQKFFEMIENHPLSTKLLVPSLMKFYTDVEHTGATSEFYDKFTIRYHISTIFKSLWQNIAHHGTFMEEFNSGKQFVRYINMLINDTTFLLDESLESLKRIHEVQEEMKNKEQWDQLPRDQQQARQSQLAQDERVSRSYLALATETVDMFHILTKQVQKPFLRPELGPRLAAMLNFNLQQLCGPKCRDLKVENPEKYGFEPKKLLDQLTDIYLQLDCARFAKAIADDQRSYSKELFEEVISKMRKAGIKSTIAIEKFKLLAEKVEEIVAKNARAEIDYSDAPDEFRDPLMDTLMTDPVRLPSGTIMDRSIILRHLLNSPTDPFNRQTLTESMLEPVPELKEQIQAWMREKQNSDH
UniProt O94812: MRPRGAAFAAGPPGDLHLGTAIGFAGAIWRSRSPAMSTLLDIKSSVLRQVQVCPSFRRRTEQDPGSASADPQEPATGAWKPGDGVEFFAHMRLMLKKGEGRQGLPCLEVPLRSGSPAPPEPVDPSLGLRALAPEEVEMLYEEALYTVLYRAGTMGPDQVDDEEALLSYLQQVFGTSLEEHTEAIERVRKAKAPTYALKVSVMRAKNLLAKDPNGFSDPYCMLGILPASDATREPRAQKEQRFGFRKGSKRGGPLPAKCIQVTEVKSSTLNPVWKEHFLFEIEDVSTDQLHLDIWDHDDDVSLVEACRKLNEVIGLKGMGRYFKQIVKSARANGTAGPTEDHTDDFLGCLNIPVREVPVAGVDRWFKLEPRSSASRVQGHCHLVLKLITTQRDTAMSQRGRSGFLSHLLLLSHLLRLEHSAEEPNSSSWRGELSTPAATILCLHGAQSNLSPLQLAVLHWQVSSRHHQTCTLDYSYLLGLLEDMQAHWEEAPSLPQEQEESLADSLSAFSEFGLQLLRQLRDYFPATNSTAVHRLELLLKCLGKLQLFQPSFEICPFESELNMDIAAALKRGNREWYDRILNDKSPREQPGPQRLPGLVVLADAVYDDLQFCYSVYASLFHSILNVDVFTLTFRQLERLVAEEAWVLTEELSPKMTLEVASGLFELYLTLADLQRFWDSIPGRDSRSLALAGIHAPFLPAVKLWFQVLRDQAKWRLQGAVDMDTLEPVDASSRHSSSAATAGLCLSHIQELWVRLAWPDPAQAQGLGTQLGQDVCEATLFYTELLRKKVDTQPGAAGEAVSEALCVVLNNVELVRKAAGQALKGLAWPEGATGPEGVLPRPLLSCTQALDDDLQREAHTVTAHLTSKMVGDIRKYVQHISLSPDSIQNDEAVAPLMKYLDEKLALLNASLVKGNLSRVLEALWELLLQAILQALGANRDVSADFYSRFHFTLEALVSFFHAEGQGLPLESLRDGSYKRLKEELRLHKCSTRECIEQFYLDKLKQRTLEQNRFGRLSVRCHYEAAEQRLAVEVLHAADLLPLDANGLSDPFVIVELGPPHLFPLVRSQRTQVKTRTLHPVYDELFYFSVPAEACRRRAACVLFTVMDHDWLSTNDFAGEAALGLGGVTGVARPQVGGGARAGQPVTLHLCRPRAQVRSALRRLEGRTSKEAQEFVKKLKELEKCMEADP
UniProt O95684: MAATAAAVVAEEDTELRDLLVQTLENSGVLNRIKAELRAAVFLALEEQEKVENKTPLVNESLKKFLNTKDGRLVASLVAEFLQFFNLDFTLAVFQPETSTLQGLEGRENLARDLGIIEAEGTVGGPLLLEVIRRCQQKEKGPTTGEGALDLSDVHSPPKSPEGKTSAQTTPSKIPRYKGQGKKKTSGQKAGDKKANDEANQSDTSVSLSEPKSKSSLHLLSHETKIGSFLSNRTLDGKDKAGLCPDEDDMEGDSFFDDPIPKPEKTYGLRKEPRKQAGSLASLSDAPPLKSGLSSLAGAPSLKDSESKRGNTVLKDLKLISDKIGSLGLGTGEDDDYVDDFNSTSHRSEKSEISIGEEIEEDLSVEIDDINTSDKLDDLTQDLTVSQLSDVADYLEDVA

The other results are listed elsewhere or left out. Small differences around the control level are noise.

Compound in this test: Cc1nc(Nc2ncc(C(=O)Nc3c(C)cccc3Cl)s2)cc(N2CCN(CCO)CC2)n1 [dasatinib]
In words: log2 fold change of tryptic peptide abundance, ligand vs vehicle (limited proteolysis) (log2 ratio); higher = more trypsin-susceptible (destabilized). Conditions: ligand concentration: 5 uM; sample: K562 cleared lysate.
On to “GGPS1 (peptide sequence: TQETVQR, peptide start residue: 4) (UniProt O95749)”, for which the log2 fold change is 0.228. Take “RAD17 (peptide sequence: IVTIEANK, peptide start residue: 302) (UniProt O75943)”: the log2 fold change was -0.141. Take “CDC123 (peptide sequence: SVILPLPQNVK, peptide start residue: 25) (UniProt O75794)”: the log2 fold change was -0.14. On to “ZFAND5 (peptide sequence: TNGMCSVCYK, peptide start residue: 26) (UniProt O76080)”, for which the log2 fold change came to 0.263.

On to “NPM3 (peptide sequence: NHDHQEIAVPVANLK, peptide start residue: 88) (UniProt O75607)”, for which the log2 fold change is -0.0545. With “UniProt O95198 (peptide sequence: VEEEALVK, peptide start residue: 259)”, the log2 fold change came out at 0.457. Regarding “FMNL1 (peptide sequence: ATLIEANR, peptide start residue: 707) (UniProt O95466)”, the log2 fold change was -0.334.

For “UBE4B (peptide sequence: HLLNSPTDPFNR, peptide start residue: 1261) (UniProt O95155)”, the log2 fold change is 0.184. Take “UniProt O94812 (peptide sequence: AAGQALK, peptide start residue: 816)”: the log2 fold change is -0.316. To “UBOX5 (peptide sequence: AQTALAVIPSSIVLPSQKR, peptide start residue: 346) (UniProt O94941)” belongs 0.405.

For the target “FGFR1OP (peptide sequence: AAVFLALEEQEKVENK, peptide start residue: 39) (UniProt O95684)”, the log2 fold change was found to be 0.128.
